In PubChem BioAssay AID188 (DTP/NCI, 2004):
Shown are survivors of the treated group in tumour-free mice. Survivors were counted at the toxicity check, usually on the fifth day, unless a day is given; later deaths do not show. Schedule codes are those of the source, taken here to give the interval after Q, in days (D) or hours (H), and the number of doses after X. Some doses were run more than once; their values stand side by side, smallest first.

System: CD2F1 mice, nontumored, toxicity/survival
Assay: NCI In Vivo Anticancer Drug Screen. Data for tumor model Nontumored Animals (Toxicity Test) in CD2F1 (CDF1) mice

Measured: survivor count

C[n+]1ccc(Nc2ccc(NC(=O)c3ccc(Nc4cc[n+](C)c5ccc(N)cc45)cc3)cc2)cc1
1 of 8: dose: 8.0 mg/kg/injection, schedule: Q01DX009 (ip), vehicle: water
0 of 8: dose: 16.0 mg/kg/injection, schedule: Q01DX001 (ip), vehicle: water | dose: 16.0 mg/kg/injection, schedule: Q01DX005 (ip), vehicle: water | dose: 16.0 mg/kg/injection, schedule: Q01DX009 (ip), vehicle: water | dose: 16.0 mg/kg/injection, schedule: Q04DX003 (ip), vehicle: water | dose: 16.0 mg/kg/injection, schedule: Q08DX002 (ip), vehicle: water | dose: 32.0 mg/kg/injection, schedule: Q01DX001 (ip), vehicle: water | dose: 32.0 mg/kg/injection, schedule: Q04DX003 (ip), vehicle: water | dose: 32.0 mg/kg/injection, schedule: Q08DX002 (ip), vehicle: water | dose: 64.0 mg/kg/injection, schedule: Q01DX001 (ip), vehicle: water | dose: 64.0 mg/kg/injection, schedule: Q04DX003 (ip), vehicle: water | dose: 64.0 mg/kg/injection, schedule: Q08DX002 (ip), vehicle: water
2 of 8: dose: 8.0 mg/kg/injection, schedule: Q03HX008 (ip), vehicle: water
7 of 8: dose: 4.0 mg/kg/injection, schedule: Q03HX016 (ip), vehicle: water | dose: 4.0 mg/kg/injection, schedule: Q03HX024 (ip), vehicle: water | dose: 16.0 mg/kg/injection, schedule: Q01DX001 (sc), vehicle: water | dose: 64.0 mg/kg/injection, schedule: Q01DX001 (sc), vehicle: water | dose: 64.0 mg/kg/injection, schedule: Q01DX009 (oral), vehicle: water
6 of 8: dose: 8.0 mg/kg/injection, schedule: Q01DX001 (ip), vehicle: water | dose: 8.0 mg/kg/injection, schedule: Q01DX005 (ip), vehicle: water | dose: 8.0 mg/kg/injection, schedule: Q03HX024 (ip), vehicle: water
8 of 8: dose: 0.25 mg/kg/injection, schedule: Q03HX008 (ip), vehicle: water | dose: 0.25 mg/kg/injection, schedule: Q03HX016 (ip), vehicle: water | dose: 0.25 mg/kg/injection, schedule: Q03HX024 (ip), vehicle: water | dose: 0.5 mg/kg/injection, schedule: Q01DX005 (ip), vehicle: water | dose: 0.5 mg/kg/injection, schedule: Q01DX009 (ip), vehicle: water | dose: 0.5 mg/kg/injection, schedule: Q01DX009 (sc), vehicle: water | dose: 0.5 mg/kg/injection, schedule: Q03HX008 (ip), vehicle: water | dose: 0.5 mg/kg/injection, schedule: Q03HX016 (ip), vehicle: water | dose: 0.5 mg/kg/injection, schedule: Q03HX024 (ip), vehicle: water | dose: 1.0 mg/kg/injection, schedule: Q01DX005 (ip), vehicle: water | dose: 1.0 mg/kg/injection, schedule: Q01DX009 (ip), vehicle: water | dose: 1.0 mg/kg/injection, schedule: Q01DX009 (sc), vehicle: water | dose: 1.0 mg/kg/injection, schedule: Q03HX008 (ip), vehicle: water | dose: 1.0 mg/kg/injection, schedule: Q03HX016 (ip), vehicle: water | dose: 1.0 mg/kg/injection, schedule: Q03HX024 (ip), vehicle: water | dose: 2.0 mg/kg/injection, schedule: Q01DX001 (ip), vehicle: water | dose: 2.0 mg/kg/injection, schedule: Q01DX001 (sc), vehicle: water | dose: 2.0 mg/kg/injection, schedule: Q01DX005 (ip), vehicle: water | dose: 2.0 mg/kg/injection, schedule: Q01DX009 (ip), vehicle: water | dose: 2.0 mg/kg/injection, schedule: Q01DX009 (oral), vehicle: water | dose: 2.0 mg/kg/injection, schedule: Q01DX009 (sc), vehicle: water | dose: 2.0 mg/kg/injection, schedule: Q03HX008 (ip), vehicle: water | dose: 2.0 mg/kg/injection, schedule: Q03HX016 (ip), vehicle: water | dose: 2.0 mg/kg/injection, schedule: Q03HX024 (ip), vehicle: water | dose: 2.0 mg/kg/injection, schedule: Q04DX003 (ip), vehicle: water | dose: 2.0 mg/kg/injection, schedule: Q08DX002 (ip), vehicle: water | dose: 4.0 mg/kg/injection, schedule: Q01DX001 (ip), vehicle: water | dose: 4.0 mg/kg/injection, schedule: Q01DX001 (sc), vehicle: water | dose: 4.0 mg/kg/injection, schedule: Q01DX005 (ip), vehicle: water | dose: 4.0 mg/kg/injection, schedule: Q01DX009 (ip), vehicle: water | dose: 4.0 mg/kg/injection, schedule: Q01DX009 (oral), vehicle: water | dose: 4.0 mg/kg/injection, schedule: Q01DX009 (sc), vehicle: water | dose: 4.0 mg/kg/injection, schedule: Q03HX008 (ip), vehicle: water | dose: 4.0 mg/kg/injection, schedule: Q04DX003 (ip), vehicle: water | dose: 4.0 mg/kg/injection, schedule: Q08DX002 (ip), vehicle: water | dose: 8.0 mg/kg/injection, schedule: Q01DX001 (oral), vehicle: water | dose: 8.0 mg/kg/injection, schedule: Q01DX001 (sc), vehicle: water | dose: 8.0 mg/kg/injection, schedule: Q01DX009 (oral), vehicle: water | dose: 8.0 mg/kg/injection, schedule: Q01DX009 (sc), vehicle: water | dose: 16.0 mg/kg/injection, schedule: Q01DX001 (oral), vehicle: water | dose: 16.0 mg/kg/injection, schedule: Q01DX009 (oral), vehicle: water | dose: 32.0 mg/kg/injection, schedule: Q01DX001 (oral), vehicle: water | dose: 32.0 mg/kg/injection, schedule: Q01DX001 (sc), vehicle: water | dose: 32.0 mg/kg/injection, schedule: Q01DX009 (oral), vehicle: water | dose: 64.0 mg/kg/injection, schedule: Q01DX001 (oral), vehicle: water | dose: 128.0 mg/kg/injection, schedule: Q01DX001 (oral), vehicle: water | dose: 256.0 mg/kg/injection, schedule: Q01DX001 (oral), vehicle: water
4 of 8: dose: 8.0 mg/kg/injection, schedule: Q08DX002 (ip), vehicle: water
3 of 8: dose: 8.0 mg/kg/injection, schedule: Q03HX016 (ip), vehicle: water | dose: 8.0 mg/kg/injection, schedule: Q04DX003 (ip), vehicle: water | dose: 16.0 mg/kg/injection, schedule: Q01DX009 (sc), vehicle: water

O=c1cnn(C2OC(CO)C(O)C2O)c(=O)[nH]1 (stereo unspecified)
10 of 10: dose: 62.5 mg/kg/injection, schedule: Q03HX016 (ip), vehicle: water | dose: 125.0 mg/kg/injection, schedule: Q03HX016 (ip), vehicle: water | dose: 250.0 mg/kg/injection, schedule: Q03HX016 (ip), vehicle: water
8 of 10 and 9 of 10: dose: 1000.0 mg/kg/injection, schedule: Q03HX016 (ip), vehicle: water
8 of 10 and 10 of 10: dose: 2000.0 mg/kg/injection, schedule: Q03HX016 (ip), vehicle: water
9 of 10 and 10 of 10: dose: 500.0 mg/kg/injection, schedule: Q03HX016 (ip), vehicle: water

CC(=O)Nc1ncc2ccccc2c1-c1ccc(NC(=O)CN(CCCl)CCCl)cc1
2 of 2: dose: 1.0 mg/kg/injection, schedule: Q01DX001 (ip), vehicle: DMSO | dose: 1.0 mg/kg/injection, schedule: Q01DX001 (ip), vehicle: olive oil, sesame oil, peanut oil | dose: 10.0 mg/kg/injection, schedule: Q01DX001 (ip), vehicle: DMSO | dose: 10.0 mg/kg/injection, schedule: Q01DX001 (ip), vehicle: olive oil, sesame oil, peanut oil | dose: 100.0 mg/kg/injection, schedule: Q01DX001 (ip), vehicle: DMSO | dose: 100.0 mg/kg/injection, schedule: Q01DX001 (ip), vehicle: olive oil, sesame oil, peanut oil

CCCCCC[C@H]([C@H](C)O)n1cnc2c(N)ncnc21
10 of 10: dose: 25.0 mg/kg/injection, schedule: Q01DX009 (ip), vehicle: Klucel (hydroxypropylcellulose) (HPC) | dose: 50.0 mg/kg/injection, schedule: Q01DX009 (ip), vehicle: Klucel (hydroxypropylcellulose) (HPC) | dose: 50.0 mg/kg/injection, schedule: Q04DX002 (ip), vehicle: Klucel (hydroxypropylcellulose) (HPC) | dose: 100.0 mg/kg/injection, schedule: Q04DX002 (ip), vehicle: Klucel (hydroxypropylcellulose) (HPC) | dose: 200.0 mg/kg/injection, schedule: Q04DX002 (ip), vehicle: Klucel (hydroxypropylcellulose) (HPC)
8 of 9: dose: 100.0 mg/kg/injection, schedule: Q01DX009 (ip), vehicle: Klucel (hydroxypropylcellulose) (HPC)
4 of 7: dose: 200.0 mg/kg/injection, schedule: Q01DX009 (ip), vehicle: Klucel (hydroxypropylcellulose) (HPC)
